Results are given in words; binding and its absence hold for the method and conditions named. In cells and extracts the contact can be indirect. A yes stands for co-enrichment or nearness to the bait. Other partners may have been found. For part of these data: A no says only that the protein was not detected with the bait. Tags and fused reporters may be left off the sequences shown.

The chains behind the UniProt entries cited, without tags or fusion partners. Where a name states a change or a piece, a line headed by the entry shows the natural chain unless it says otherwise.
UniProt Q9M2D8: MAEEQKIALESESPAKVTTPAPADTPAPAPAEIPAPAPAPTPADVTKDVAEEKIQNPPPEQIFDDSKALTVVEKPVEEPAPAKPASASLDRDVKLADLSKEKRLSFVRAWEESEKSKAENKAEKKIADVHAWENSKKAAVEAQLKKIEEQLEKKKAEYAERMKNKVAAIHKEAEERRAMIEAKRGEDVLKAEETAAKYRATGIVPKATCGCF
UniProt O80837: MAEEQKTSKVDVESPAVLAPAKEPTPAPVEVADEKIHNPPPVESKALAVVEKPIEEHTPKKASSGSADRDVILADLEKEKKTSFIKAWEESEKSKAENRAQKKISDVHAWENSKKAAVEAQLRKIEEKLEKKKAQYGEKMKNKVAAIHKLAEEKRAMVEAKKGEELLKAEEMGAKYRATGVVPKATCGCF
UniProt Q9SHJ3: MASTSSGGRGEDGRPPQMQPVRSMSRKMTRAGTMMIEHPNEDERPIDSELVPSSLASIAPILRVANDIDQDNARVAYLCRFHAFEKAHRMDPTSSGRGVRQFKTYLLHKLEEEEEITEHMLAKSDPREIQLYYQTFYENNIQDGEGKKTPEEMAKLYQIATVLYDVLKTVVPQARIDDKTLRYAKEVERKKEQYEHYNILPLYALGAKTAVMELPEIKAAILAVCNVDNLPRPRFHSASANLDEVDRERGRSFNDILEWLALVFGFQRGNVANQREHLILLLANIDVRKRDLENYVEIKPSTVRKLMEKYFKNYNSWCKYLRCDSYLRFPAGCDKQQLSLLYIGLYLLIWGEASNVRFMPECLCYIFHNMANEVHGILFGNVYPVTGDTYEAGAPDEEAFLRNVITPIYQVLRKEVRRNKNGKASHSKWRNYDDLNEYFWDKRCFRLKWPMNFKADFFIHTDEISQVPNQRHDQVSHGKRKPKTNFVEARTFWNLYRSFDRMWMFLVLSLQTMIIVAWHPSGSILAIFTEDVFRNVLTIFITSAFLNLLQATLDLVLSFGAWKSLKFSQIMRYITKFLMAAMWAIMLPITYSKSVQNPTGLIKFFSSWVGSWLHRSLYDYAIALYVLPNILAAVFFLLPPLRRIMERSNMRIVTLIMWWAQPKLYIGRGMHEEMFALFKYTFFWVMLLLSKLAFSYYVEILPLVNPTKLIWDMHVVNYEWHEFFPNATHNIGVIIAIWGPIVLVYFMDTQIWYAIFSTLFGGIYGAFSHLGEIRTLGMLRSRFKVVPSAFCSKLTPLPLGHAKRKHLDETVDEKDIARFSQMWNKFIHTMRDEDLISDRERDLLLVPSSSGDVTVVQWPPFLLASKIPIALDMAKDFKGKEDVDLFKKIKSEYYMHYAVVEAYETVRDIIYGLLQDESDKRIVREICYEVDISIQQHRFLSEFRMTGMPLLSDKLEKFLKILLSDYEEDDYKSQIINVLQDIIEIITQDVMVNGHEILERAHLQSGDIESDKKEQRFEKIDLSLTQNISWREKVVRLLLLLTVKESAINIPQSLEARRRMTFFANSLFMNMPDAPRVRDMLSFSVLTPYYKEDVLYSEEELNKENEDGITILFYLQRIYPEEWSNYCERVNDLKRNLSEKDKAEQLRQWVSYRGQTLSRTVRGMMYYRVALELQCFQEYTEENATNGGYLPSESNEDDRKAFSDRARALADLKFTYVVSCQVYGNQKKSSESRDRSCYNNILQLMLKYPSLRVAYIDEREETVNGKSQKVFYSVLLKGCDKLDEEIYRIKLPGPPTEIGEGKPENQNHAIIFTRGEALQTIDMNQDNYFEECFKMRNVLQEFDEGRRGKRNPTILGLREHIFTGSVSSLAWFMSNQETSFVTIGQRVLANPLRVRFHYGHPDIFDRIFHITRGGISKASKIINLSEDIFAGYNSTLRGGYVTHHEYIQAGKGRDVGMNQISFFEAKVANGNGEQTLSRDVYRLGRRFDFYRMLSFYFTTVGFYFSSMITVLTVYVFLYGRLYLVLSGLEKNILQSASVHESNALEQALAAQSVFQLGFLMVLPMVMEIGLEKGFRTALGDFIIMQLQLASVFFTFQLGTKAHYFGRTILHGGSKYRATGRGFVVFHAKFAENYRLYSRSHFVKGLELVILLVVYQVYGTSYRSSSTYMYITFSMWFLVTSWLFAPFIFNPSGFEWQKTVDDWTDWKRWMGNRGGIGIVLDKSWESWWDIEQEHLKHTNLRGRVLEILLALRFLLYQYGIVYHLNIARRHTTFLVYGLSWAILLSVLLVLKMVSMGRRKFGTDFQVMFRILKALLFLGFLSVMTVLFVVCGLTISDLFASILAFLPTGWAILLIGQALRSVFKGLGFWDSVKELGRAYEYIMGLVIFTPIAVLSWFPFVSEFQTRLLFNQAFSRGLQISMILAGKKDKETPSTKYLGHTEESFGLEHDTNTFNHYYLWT
UniProt Q9FX32: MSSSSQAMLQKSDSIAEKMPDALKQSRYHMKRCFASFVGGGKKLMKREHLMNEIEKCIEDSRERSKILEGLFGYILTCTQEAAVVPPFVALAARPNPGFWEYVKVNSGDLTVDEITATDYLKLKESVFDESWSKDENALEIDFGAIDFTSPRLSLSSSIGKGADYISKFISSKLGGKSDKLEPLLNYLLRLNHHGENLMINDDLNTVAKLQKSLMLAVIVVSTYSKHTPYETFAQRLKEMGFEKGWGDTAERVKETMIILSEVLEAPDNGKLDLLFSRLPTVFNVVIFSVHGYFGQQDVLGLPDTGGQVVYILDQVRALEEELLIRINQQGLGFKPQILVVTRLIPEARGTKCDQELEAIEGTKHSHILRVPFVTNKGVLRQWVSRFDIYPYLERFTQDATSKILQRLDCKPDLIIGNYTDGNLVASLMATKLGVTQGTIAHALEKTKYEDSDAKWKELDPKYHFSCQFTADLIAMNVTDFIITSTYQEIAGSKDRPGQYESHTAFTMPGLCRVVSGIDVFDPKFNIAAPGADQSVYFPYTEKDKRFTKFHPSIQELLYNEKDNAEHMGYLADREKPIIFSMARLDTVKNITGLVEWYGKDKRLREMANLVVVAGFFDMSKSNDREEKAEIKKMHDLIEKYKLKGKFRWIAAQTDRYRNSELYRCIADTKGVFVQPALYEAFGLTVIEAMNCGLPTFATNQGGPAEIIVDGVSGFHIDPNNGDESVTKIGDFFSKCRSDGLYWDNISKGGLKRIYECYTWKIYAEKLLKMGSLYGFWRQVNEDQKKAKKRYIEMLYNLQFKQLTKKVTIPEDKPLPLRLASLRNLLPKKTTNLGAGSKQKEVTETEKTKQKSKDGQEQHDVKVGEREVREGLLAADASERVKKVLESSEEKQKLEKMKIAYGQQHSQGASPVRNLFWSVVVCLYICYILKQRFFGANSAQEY

Holding throughout (test): proximity labelling
In test [1] the target is T1, PDLP6-TbID-3xFlag (Arabidopsis thaliana) (UniProt Q9ZU94).
T1 sequence: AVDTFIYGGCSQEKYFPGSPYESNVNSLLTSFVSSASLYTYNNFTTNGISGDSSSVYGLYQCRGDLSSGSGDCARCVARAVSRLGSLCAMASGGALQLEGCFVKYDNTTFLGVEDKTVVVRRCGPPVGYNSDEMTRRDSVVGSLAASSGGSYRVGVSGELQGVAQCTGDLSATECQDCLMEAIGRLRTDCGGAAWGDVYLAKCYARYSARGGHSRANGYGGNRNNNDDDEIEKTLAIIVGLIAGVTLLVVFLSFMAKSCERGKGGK

Test [2] deals with T2, PDLP5-TurboID-3xFlag (Arabidopsis thaliana) (UniProt Q8GUJ2).
T2 sequence: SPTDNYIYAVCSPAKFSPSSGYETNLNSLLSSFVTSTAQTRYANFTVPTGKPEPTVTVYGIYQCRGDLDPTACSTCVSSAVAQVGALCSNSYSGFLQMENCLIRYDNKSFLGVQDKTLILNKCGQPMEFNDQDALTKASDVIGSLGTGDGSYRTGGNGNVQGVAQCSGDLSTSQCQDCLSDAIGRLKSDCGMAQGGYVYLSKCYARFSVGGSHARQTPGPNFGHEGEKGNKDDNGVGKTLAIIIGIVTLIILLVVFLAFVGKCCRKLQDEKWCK

Test [3] has as its target T3, TbID-3xFlag-MCTP3 (Arabidopsis thaliana) (UniProt Q9M2R0).
T3 sequence: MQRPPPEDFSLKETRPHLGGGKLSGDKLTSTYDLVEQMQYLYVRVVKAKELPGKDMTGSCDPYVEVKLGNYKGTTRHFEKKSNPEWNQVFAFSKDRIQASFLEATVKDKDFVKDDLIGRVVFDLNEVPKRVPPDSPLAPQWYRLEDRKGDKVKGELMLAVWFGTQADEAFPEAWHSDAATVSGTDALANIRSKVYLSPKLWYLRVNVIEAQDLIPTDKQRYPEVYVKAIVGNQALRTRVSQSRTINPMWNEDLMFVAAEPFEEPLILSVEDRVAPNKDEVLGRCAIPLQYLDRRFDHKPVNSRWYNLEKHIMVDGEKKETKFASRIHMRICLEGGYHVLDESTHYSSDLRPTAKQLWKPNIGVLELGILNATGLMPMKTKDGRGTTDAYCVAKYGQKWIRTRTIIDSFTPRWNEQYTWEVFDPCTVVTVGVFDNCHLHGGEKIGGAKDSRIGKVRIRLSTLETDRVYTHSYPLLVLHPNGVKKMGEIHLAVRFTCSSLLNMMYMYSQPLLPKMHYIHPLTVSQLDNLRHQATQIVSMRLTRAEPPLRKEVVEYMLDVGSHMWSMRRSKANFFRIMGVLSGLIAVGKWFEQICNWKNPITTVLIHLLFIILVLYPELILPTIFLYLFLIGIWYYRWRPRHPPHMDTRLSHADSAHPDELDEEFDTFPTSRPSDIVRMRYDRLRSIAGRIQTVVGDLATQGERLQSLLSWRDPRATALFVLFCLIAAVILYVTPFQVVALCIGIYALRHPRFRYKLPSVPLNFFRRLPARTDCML

Regarding REM1.2 (from UniProt Q9M2D8), the binding result in test [1] and in test [2] was “binds” each time.

For the molecule REM1.3 (from UniProt O80837), the binding result in test [1] and in test [2] was “binds” throughout. Take “callose synthase 7 (CalS7), endogenous (from UniProt Q9SHJ3 1-1958) (enzyme)”: the binding result in test [1] is recorded as “no binding”. Take “sucrose synthase 6 (SUS6), endogenous (from UniProt Q9FX32 1-942) (enzyme)”: the binding result in test [1] was “binds”.

B1: RTNLB8 (protein, UniProt Q9SS37 1-247)
chain: MPDKNIVEDVIGDLVDNFTETVQKNKHGSSFFEQEDSVSSRFNRLFDRQKPIHHVLGGGKSADVLLWRNKKISASVLMGATAIWVLFEWINFHFLSLVCYALLLGMIAQFVWSNASGFLNRSQSRVPRLVLPKDFFAEVGVAVGKEVNRGLLFLQDLACKGNLKQFLMAVIGLWVAAMVGSCCNFLTVLYIGFVGAHTMPVLYERYEDEVDGFMDSMIMKFHSHYKKLDTGFLSRIPSGKFGLKKRE
Consider B1, for which the binding result in test [3] was “binds”.

B2: RTNLB6 (protein, UniProt Q6DBN4 1-253)
chain: MAEELEKSMHKEESLMEKIADKIHDHDSSSSSDSEHEKPESPSALKAKIYRLFGREKPVHKVLGGGLPADVFLWRDKKLSASVLGVATAIWVLFELVEYHFLSLVCHILIFALAALFLLSNAHAFMNKTPPKIPEIHIKEEHFLMIVSALRNELNQAFVILRSIALGRDLKKFLMVVFGLWIISVVGNWFNFLTLVYICFVVLHTVPMLYEKHEDKVDPVAEKTLKELKKHYMVFDEKVLSKLPVASLKAKLG
On to B2, for which the binding entry in test [3] is “binds”.

B3: HVA22a (protein, UniProt Q9S7V4 1-177)
chain: MGSGAGNFLKVLLRNFDVLAGPVVSLVYPLYASVQAIETQSHADDKQWLTYWVLYSLLTLIELTFAKLIEWLPIWSYMKLILTCWLVIPYFSGAAYVYEHFVRPVFVNPRSINIWYVPKKMDIFRKPDDVLTAAEKYIAENGPDAFEKILSRADKSKRYNKHEYESYETMYGEGYQY
With B3, in test [3], the binding result was “binds”.

B4: CLV1 (receptor, UniProt Q9SYQ8 25-980)
chain: YTDMEVLLNLKSSMIGPKGHGLHDWIHSSSPDAHCSFSGVSCDDDARVISLNVSFTPLFGTISPEIGMLTHLVNLTLAANNFTGELPLEMKSLTSLKVLNISNNGNLTGTFPGEILKAMVDLEVLDTYNNNFNGKLPPEMSELKKLKYLSFGGNFFSGEIPESYGDIQSLEYLGLNGAGLSGKSPAFLSRLKNLREMYIGYYNSYTGGVPPEFGGLTKLEILDMASCTLTGEIPTSLSNLKHLHTLFLHINNLTGHIPPELSGLVSLKSLDLSINQLTGEIPQSFINLGNITLINLFRNNLYGQIPEAIGELPKLEVFEVWENNFTLQLPANLGRNGNLIKLDVSDNHLTGLIPKDLCRGEKLEMLILSNNFFFGPIPEELGKCKSLTKIRIVKNLLNGTVPAGLFNLPLVTIIELTDNFFSGELPVTMSGDVLDQIYLSNNWFSGEIPPAIGNFPNLQTLFLDRNRFRGNIPREIFELKHLSRINTSANNITGGIPDSISRCSTLISVDLSRNRINGEIPKGINNVKNLGTLNISGNQLTGSIPTGIGNMTSLTTLDLSFNDLSGRVPLGGQFLVFNETSFAGNTYLCLPHRVSCPTRPGQTSDHNHTALFSPSRIVITVIAAITGLILISVAIRQMNKKKNQKSLAWKLTAFQKLDFKSEDVLECLKEENIIGKGGAGIVYRGSMPNNVDVAIKRLVGRGTGRSDHGFTAEIQTLGRIRHRHIVRLLGYVANKDTNLLLYEYMPNGSLGELLHGSKGGHLQWETRHRVAVEAAKGLCYLHHDCSPLILHRDVKSNNILLDSDFEAHVADFGLAKFLVDGAASECMSSIAGSYGYIAPEYAYTLKVDEKSDVYSFGVVLLELIAGKKPVGEFGEGVDIVRWVRNTEEEITQPSDAAIVVAIVDPRLTGYPLTSVIHVFKIAMMCVEEEAAARPTMREVVHMLTNPPKSVANLIAF
With B4, the binding entry in test [1] and in test [2] was “binds” each time.

B5: HVA22c (protein, UniProt Q9S784 1-184)
chain: MPSNSGDDNVLQVLIKNFDVLALPLVTLVYPLYASVKAIETRSLPEDEQWLTYWVLYALISLFELTFSKPLEWFPIWPYMKLFGICWLVLPQFNGAEHIYKHFIRPFYRDPQRATTKIWYVPHKKFNFFPKRDDDDILTAAEKYMEQHGTEAFERMIVKKDSYERGRSSRGINNHMIFDDDYRY
In the case of B5, in test [3], the binding entry was “binds”.

The values are drawn from paper doi:10.1101/2022.08.05.502996.
